Results are given in words; binding and its absence hold for the method and conditions named. In cells and extracts the contact can be indirect. Some results given as binding are weak or reduced against the parent protein; the word gives no strength.
Biological target: Beclin 1 (UniProt Q14457)
Experiment: co-IP; HEK293T lysates in NP-40 buffer with protease inhibitors and PMSF; antibody 2 h, then protein G Dynabeads 2 h; four washes with PBS; immunoblot; cells treated with DMSO or 5 ug/ml flubendazole for 2 h

By UniProt entry, the sequences of proteins in these tests, tags left out.
UniProt Q14457: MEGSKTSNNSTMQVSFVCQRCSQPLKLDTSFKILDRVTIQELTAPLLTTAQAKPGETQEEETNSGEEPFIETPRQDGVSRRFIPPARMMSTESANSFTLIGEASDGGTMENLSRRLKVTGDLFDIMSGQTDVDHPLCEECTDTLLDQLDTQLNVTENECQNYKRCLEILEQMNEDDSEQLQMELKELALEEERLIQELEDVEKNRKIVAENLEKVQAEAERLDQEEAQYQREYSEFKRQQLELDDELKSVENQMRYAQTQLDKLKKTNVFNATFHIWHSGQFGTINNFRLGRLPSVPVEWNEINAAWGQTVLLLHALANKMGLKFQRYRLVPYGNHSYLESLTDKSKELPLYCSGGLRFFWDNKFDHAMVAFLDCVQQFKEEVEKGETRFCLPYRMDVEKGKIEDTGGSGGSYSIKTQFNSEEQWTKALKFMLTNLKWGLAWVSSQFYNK
UniProt P10415: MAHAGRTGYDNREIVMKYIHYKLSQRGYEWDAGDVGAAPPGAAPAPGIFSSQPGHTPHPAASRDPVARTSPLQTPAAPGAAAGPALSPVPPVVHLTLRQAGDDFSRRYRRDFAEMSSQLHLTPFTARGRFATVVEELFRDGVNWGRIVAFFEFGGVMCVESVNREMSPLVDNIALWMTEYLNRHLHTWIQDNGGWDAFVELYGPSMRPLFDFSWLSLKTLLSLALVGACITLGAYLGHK

binding: binds
Substance: Bcl-2 (from UniProt P10415 1-239)

Source: paper PMC4624223
